The hits were mostly taken out for another list; the other results follow. Results filed as inconclusive are left out. Active and inactive are the calls of the source. Calls come from the whole dose curve; as a rule, active = well fitted inhibition curve with a large enough effect; inconclusive = small, poorly fitted or top-dose-only effect; inactive = flat fitted curve, though single readings scatter.
Assay: qHTS for Inhibitors of TGF-b: Cytotox Counterscreen for Cherry Picks; note: nearly all actives have a fitted effect of over 70% in size
Conditions: HepG2 CAGA-GFP viability, ATP luminescence, 18 h, cells stimulated with TGF-beta, 500 pg/mL; at 46.1 µM (top of the series)
Text: TGF-b is a main component in the TGF-b signaling pathway which plays diverse roles in cellular and development pathways. TGF-b is mediated by transcription factors called "Smads". Although the Smad-dependent pathway is the primary canonical TGF-b signaling mode, TGF-b1 can also activate alternative signaling pathways, including those involving MAPK (ERK, JNK and p38). This interaction may mediate or enhance Smad-dependent responses, or can exert Smad-independent effects. The complexity of this signaling cascade allows the TGF-b superfamily to perform unique, overlapping or redundant functions. […] We aim to identify Smad3-small molecule antagonists using a quantitative high throughput screening (qHTS) approach. […]
Suspensions of trypsinized HEPG2 CAGA-GFP cells were dispensed into white, tissue culture-treated, solid 1536-well plates at 5uL/well (1000 cells/well final concentration) in DMEM medium supplemented with 1% FBS. […] Two uL of CellTiter Glo (Promega), a luminescence-based viability reagent, was dispensed, followed by a 10 minute room temperature incubation. The plates were then measured on a PerkinElmer ViewLux plate reader for luminescence (clear filter) using a 5 second exposure. The %Activity was determined from the corrected luminescence values. […] Concentration-response curves were fitted to the signals arising from the resulting luminescence. […]
With `COc1c(O)cc2c(c1OC)-c1ccc(SC)c(=O)cc1C(NC(C)=O)CC2` (stereo unspecified) the activity, negative = cytotoxicity was inactive: -4.76%.

Reference: PubChem BioAssay AID720535 (National Center for Advancing Translational Sciences (NCATS), 2013)
